# Laboratory results from article PMC11086750.
# The chains behind the UniProt entries cited, without tags or fusion partners.
# UniProt Q86WV6: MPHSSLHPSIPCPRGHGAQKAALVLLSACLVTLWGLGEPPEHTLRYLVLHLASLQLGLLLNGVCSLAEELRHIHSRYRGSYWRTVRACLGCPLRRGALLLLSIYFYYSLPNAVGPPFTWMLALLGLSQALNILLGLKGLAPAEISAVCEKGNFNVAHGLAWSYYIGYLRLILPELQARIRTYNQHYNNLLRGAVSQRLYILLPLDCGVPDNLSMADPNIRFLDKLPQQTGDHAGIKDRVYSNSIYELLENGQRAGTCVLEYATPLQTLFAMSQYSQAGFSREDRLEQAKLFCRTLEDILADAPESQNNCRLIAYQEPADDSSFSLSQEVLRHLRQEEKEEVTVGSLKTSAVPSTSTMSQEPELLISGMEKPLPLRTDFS
# No constants are given. Whether binding was seen depends on the method and setting. Binding seen in cells or lysates may run through a third protein. Some results given as binding are weak or reduced against the parent protein; the word gives no strength. For some assays here: Tags and fused reporters may be left off the sequences shown.
# Columns and labels:
# [1] = target: FLAG-STING (stimulator of interferon genes) (UniProt Q86WV6); test: co-IP; HEK293 cells co-transfected with a FLAG-tagged and an HA-tagged protein; IP with anti-FLAG beads, immunoblot with HA antibody
# [2] = target: Flag-STING expressed in BEAS-2B cells, Q86WV6; test: co-IP; EV or GSDMB KO BEAS-2B cells transfected with Flag-STING; IP with anti-FLAG beads, immunoblot with anti-TBK1 antibody; conditions: remark: other sources report otherwise
binding [1],binding [2],Binder
binds,–,"HA-GSDMB (Gasdermin B) (protein, UniProt Q8TAX9 1-416) MFSVFEEITRIVVKEMDAGGDMIAVRSLVDADRFRCFHLVGEKRTFFGCRHYTTGLTLMDILDTDGDKWLDELDSGLQGQKAEFQILDNVDSTGELIVRLPKEITISGSFQGFHHQKIKISENRISQQYLATLENRKLKRELPFSFRSINTRENLYLVTETLETVKEETLKSDRQYKFWSQISQGHLSYKHKGQREVTIPPNRVLSYRVKQLVFPNKETMNIHFRGKTKSFPEEKDGASSCLGKSLGSEDSRNMKEKLEDMESVLKDLTEEKRKDVLNSLAKCLGKEDIRQDLEQRVSEVLISGELHMEDPDKPLLSSLFNAAGVLVEARAKAILDFLDALLELSEEQQFVAEALEKGTLPLLKDQVKSVMEQNWDELASSPPDMDYDPEARILCALYVVVSILLELAEGPTSVSS"
–,binds,"TBK1, Q9UHD2 1-729 (enzyme) MQSTSNHLWLLSDILGQGATANVFRGRHKKTGDLFAIKVFNNISFLRPVDVQMREFEVLKKLNHKNIVKLFAIEEETTTRHKVLIMEFCPCGSLYTVLEEPSNAYGLPESEFLIVLRDVVGGMNHLRENGIVHRDIKPGNIMRVIGEDGQSVYKLTDFGAARELEDDEQFVSLYGTEEYLHPDMYERAVLRKDHQKKYGATVDLWSIGVTFYHAATGSLPFRPFEGPRRNKEVMYKIITGKPSGAISGVQKAENGPIDWSGDMPVSCSLSRGLQVLLTPVLANILEADQEKCWGFDQFFAETSDILHRMVIHVFSLQQMTAHKIYIHSYNTATIFHELVYKQTKIISSNQELIYEGRRLVLEPGRLAQHFPKTTEENPIFVVSREPLNTIGLIYEKISLPKVHPRYDLDGDASMAKAITGVVCYACRIASTLLLYQELMRKGIRWLIELIKDDYNETVHKKTEVVITLDFCIRNIEKTVKVYEKLMKINLEAAELGEISDIHTKLLRLSSSQGTIETSLQDIDSRLSPGGSLADAWAHQEGTHPKDRNVEKLQVLLNCMTEIYYQFKKDKAERRLAYNEEQIHKFDKQKLYYHATKAMTHFTDECVKKYEAFLNKSEEWIRKMLHLRKQLLSLTNQCFDIEEEVSKYQEYTNELQETLPQKMFTASSGIKHTMTPIYPSSNTLVEMTLGMKKLKEEMEGVVKELAENNHILERFGSLTMDGGLRNVDCL"
